Results are given in words; binding and its absence hold for the method and conditions named. In cells and extracts the contact can be indirect. A yes stands for co-enrichment or nearness to the bait. Other partners may have been found. Tags and fused reporters may be left off the sequences shown.
Molecular target: T1, Flag-C9orf72 (long isoform) (human) (UniProt Q96LT7)
T1 sequence: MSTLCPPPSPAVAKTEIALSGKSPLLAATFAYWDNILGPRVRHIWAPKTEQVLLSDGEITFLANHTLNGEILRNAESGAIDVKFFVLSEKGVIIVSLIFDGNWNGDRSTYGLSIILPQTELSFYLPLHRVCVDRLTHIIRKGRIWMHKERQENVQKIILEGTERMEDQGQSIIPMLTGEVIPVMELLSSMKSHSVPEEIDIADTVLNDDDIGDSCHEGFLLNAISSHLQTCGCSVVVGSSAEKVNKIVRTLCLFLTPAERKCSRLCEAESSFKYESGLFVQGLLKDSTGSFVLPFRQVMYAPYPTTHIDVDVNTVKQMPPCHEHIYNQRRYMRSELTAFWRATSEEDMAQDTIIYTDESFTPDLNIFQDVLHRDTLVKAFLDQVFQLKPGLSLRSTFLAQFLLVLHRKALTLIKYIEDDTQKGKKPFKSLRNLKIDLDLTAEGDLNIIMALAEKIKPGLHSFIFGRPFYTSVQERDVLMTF
Assay: affinity purification with mass spectrometry; lysates of HEK-293T cells transfected with Flag-tag or Flag-C9orf72 (long version); IP with a Flag antibody pre-coupled to Protein A/G magnetic beads, then MS; Flag-tag sample as control

Protein sequences, listed by entry. Tags and fused reporters are not part of them.
UniProt P23528: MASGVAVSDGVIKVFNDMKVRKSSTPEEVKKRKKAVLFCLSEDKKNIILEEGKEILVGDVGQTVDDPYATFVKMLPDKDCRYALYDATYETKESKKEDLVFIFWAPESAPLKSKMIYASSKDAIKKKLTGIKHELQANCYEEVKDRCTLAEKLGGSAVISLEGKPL

**Q.** Which binding does the source give for CFL1 (from UniProt P23528 1-166) here?
**A.** The binding was “binds”.
